Measured values taken from article PMC6394990, “Detailed characterization of the solution kinetics and thermodynamics of biotin, biocytin and HABA binding to avidin and streptavidin” (PLoS ONE, 2019).

Experiments:
Assay type in all cases: physicochemical
[1] = Absorbance and fluorescence emission spectra, unbound probe
Description: (§1) The lifetimes (τ), steady state anisotropies (rss), time-resolved anisotropies (rt) and quantum yields (QY) of the complexes (at 20 ± 0.1°C and pH 8) were collected with a dye-labeled B7 probe concentration of 20–40 nM and 1040–2080 nM of either protein (AV or SAV) to ensure that only one binding site in the tetramer was filled with a ligand (AB1 filling model).
(§2) The QY values were obtained by using a reference fluorophore of known quantum yield and were calculated according to Parker and Rees, where the reference dye was fluorescein in 0.1N sodium hydroxide solution [46]. The emission fluorescence scans were collected from 480 nm to 700 nm with the excitation light set at 460 nm provided by the xenon arc lamp described above. These measurements were made on the AB1 complexes at high protein concentration.
Supplementary file pone.0204194.s001.docx: S1 Fig Absorbance spectra of dye-labeled B7 probes and respective complexes with AV and SAV. […] The spectra are normalized to the calculated molar absorptivies. […] The labeled probes and protein concentrations were 1 μM and 10 μM, respectively. (DOCX) Click here for additional data file.
Supplementary file pone.0204194.s002.docx: S2 Fig Fluorescence emission spectra of dye-labeled B7 and respective complexes with AV and SAV. […] The probe and protein concentrations were 20 nM and 1040 nM (AB1 filling model), respectively. (DOCX) Click here for additional data file.

[2] = Fluorescence lifetimes, unbound probe; settings: 20°C, pH 8
Description: as §1
(§3) The lifetimes were collected in a FluoTime100 fluorescence spectrometer (PicoQuant, GmbH, Berlin, Germany) with the excitation light source provided by a picosecond pulsed diode laser (PicoQuant, GmbH, Berlin, Germany) at 470 nm and 20 MHz. The emission was collected at 520 nm through a non-fluorescing 520 nm interference filter (Oriel Corp., Stratford, CT) followed by a liquid filter of 1cm path length containing 24 mM acetate buffered dichromate at pH 4, between the sample and detector to eliminate traces of excitation light. The fluorescence decays were fit by a nonlinear least-squares minimization based on the Marquardt algorithm embedded in the Fluofit software (PicoQuant GmbH). […] The PicoQuant G factor was calculated according to: G = ∫HV(t)dt/∫HH(t)dt, where HV(t) and HH(t) were the decays collected with the emission polarizer selecting vertical and horizontal E-vector passing orientations, respectively, and the excitation polarizer set at horizontally position.

[3] = Quantum yields (QY), unbound probe
Description: as §1, §2

[4] = Intrinsic lifetime, dynamic quantum yield and fraction of non-statically quenched molecules, unbound probe
[5] = Steady-state anisotropy (rss), unbound probe; settings: 20°C
Description: as §1
The rss measurements were collected using the Giblin-Parkhurst modification of the Wampler-Desa method as described previously. The fluorescence signal was detected in a model A-1010 Alphascan fluorimeter (Photon Technologies, Inc., Birmingham, NJ) equipped with an R928 PMT (Hamamatsu, Bridgewater, NJ). The excitation was provided by an Ar^+ ion laser (Coherent Innova 70–4 Argon, Santa Clara, CA) at 488 nm and 5–10 mW of power incident on the sample. […] The fluorimeter G factor was determined using a film polarizer and analyzer with an excitation at 488 nm provided by a xenon arc lamp (model A1010, Photon Technologies Inc, Princeton, NJ). The dissociation reactions of dye-labeled B7 and protein complexes were monitored by fluorescence changes and were also collected in the fluorimeter described above.

[6] = Time-resolved anisotropy, cone angle, unbound probe; settings: 20°C
Description: as §3, with “position. […]” for “position.”
In a simple model, the transition moment is assumed to wobble within a cone of semi-apical angle Ω [59], where the cone axis is normal to the surface of a sphere that corresponds to the macromolecule. The angle Ω is calculated from Eq 14.

Structure (SMILES)	Maximum Absorbance [1] [nm]	Maximum Emission [1] [nm]	Lifetime τ [2] [ns]	Quantum Yield QY [3]	Dynamic Quantum Yield Φ [4]	Fraction of Non-Statically Quenched Dye 1-S [4]	Natural Lifetime τ° [4]	Steady State Anisotropy rss [5]	Cone Angle Ω [6] [degrees]
NC(CCCCNC(=O)CCCC[C@@H]1SC[C@@H]2NC(=O)N[C@@H]21)C(=O)NCCCCCNC(=O)c1ccc(-c2c3cc(F)c(=O)cc-3oc3cc(O)c(F)cc23)c(C(=O)O)c1 (stereo partly drawn) [BcO, Oregon green 488 Biocytin]	495	523	3.75 ± 0.04	0.91 ± 0.02	0.85 ± 0.02	1.00 ± 0.02	4.4 ± 0.1	0.023 ± 0.002	90
O=C(CCCC[C@@H]1SC[C@@H]2NC(=O)N[C@@H]21)NCCNC(=O)c1ccc(-c2c3ccc(=O)cc-3oc3cc(O)ccc23)c(C(=O)O)c1 [BFl, Biotin-4-fluorescein]	494	530	4.03 ± 0.01	0.52 ± 0.02	0.81 ± 0.04	0.65 ± 0.06	5.2 ± 0.2	0.021 ± 0.002	90
